Reference: article PMC5389439
These are yes or no findings as the source states them, for the method shown. Binding seen in cells or lysates may run through a third protein. Some entries that bind do so weakly or less than the wild type. For part of these data: Tags and fused reporters may be left off the sequences shown.

Chains of the proteins cited; added tags and fusions are not shown.
UniProt Q62296: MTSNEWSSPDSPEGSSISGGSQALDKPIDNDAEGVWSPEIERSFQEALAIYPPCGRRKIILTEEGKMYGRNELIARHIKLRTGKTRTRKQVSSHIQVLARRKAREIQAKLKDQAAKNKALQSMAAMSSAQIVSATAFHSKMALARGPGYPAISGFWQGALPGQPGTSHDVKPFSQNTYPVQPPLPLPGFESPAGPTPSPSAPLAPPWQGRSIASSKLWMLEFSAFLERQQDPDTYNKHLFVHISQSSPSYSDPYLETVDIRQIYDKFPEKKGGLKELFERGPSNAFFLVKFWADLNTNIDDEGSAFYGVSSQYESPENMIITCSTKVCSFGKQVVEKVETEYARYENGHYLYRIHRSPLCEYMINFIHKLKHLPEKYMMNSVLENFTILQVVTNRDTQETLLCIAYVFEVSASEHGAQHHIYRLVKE
UniProt Q08943: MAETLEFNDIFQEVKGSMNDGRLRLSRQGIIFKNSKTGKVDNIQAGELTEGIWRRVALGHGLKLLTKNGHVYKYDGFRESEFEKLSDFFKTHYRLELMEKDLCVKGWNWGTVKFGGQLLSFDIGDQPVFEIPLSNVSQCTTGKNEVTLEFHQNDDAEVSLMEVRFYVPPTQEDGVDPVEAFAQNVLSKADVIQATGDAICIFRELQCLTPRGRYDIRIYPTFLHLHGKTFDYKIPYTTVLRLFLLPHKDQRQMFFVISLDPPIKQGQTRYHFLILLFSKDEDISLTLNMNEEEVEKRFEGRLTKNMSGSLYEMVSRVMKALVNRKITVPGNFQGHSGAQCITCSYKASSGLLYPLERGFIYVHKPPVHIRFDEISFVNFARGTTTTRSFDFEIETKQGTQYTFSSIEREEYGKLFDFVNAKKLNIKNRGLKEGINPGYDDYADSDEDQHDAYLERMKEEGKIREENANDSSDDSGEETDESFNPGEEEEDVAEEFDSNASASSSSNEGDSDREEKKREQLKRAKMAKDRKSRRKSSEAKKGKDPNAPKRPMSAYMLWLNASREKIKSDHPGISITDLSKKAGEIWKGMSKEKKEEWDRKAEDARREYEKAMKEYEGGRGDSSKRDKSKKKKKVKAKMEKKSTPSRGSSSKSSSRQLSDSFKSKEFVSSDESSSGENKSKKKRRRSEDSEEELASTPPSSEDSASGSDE
UniProt P46938: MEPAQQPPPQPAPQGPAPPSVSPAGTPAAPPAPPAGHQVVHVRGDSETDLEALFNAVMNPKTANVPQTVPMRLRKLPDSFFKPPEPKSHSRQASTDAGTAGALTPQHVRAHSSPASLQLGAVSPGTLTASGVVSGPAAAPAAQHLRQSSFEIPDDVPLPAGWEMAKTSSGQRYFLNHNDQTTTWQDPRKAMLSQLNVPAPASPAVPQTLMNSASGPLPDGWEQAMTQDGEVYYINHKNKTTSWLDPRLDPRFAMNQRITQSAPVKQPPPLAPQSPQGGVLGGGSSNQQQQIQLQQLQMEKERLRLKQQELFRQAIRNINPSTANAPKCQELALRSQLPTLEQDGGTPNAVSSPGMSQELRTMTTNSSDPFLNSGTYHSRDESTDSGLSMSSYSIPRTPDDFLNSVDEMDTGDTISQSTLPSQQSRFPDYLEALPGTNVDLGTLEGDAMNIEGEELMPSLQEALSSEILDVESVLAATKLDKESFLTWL

B1: Sbno1 (Strawberry Notch 1), endogenous in mouse E3.5 embryos (protein, UniProt Q689Z5 1-1390)
chain: MVEPGQDLLLAALSESGISPNDLFDVDGGDAGLATPTPPSVQQSVPLSALELGLETEAAVPVKQEPEPMSTPALLNVRQPPSTTTFVLNQINQLPTLGSTIVMTKTPPATTNRQTITLTKFIQTTANTRPSVSAPAVRNAMPAAPSKDQVQLKDLLKNNSLNELMKLKPPANIAQPVATAATDVSNGAVKKESSNKEVARIWINDMKMRSFSPTMKVPVVKEEDEPEEEDEEEMGHAETYAEYMPIKLKIGLRHPDAVVETSSLSSVTPPDVWYKTSISEETIDNGWLSALQLEAVTYAAQQHETFLPNGDRAGFLIGDGAGVGKGRTIAGIIYENYLLSRKRALWFSVSNDLKYDAERDLRDIGAKNILVHSLNKFKYGKISSKHNGSVKKGVIFATYSSLIGESQSGGKYKTRLKQLLHWCGDDFDGVIVFDECHKAKNLCPVGSSKPTKTGLAVLELQNKLPKARVVYASATGASEPRNMAYMNRLGIWGEGTPFREFSDFIQAVERRGVGAMEIVAMDMKLRGMYIARQLSFTGVTFKIEEVLLSQSYVKMYNKAVKLWVIARERFQQAADLIDAEQRMKKSMWGQFWSAHQRFFKYLCIASKVKRVVQLAREEIKNGKCVVIGLQSTGEARTLEALEEGGGELNDFVSTAKGVLQSLIEKHFPAPDRKKLYSLLGIDLTAPSNNSSPRDSPCKENKIKKRKGEEITREAKKARKVGGLTGSSSDDSGSESVSDNDESDYESSKNMSSGDDDDFNPFRDESSEDNEDDPWLIRKDHKKSKDKKKKKSIDPDSIQSALLASGLGSKRPSFSSAPVISPASNSAPANSNSNSNSSLVTSQDAVERAQQMKKDLLDKLEKLAEDLPPNTLDELIDELGGPENVAEMTGRKGRVVSNDDGSISYESRSELDVPVEILNITEKQRFMDGDKNIAIISEAASSGISLQADRRAKNQRRRVHMTLELPWSADRAIQQFGRTHRSNQVTAPEYVFLISELAGEQRFASIVAKRLEGLGALTHGDRRATESRDLSRFNFDNKYGRNALEIVMKSIVNLDSPMVSPPPDYPGEFFKDVRQGLIGVGLINVEDRSGILTLDKDYNNIGKFLNRILGMEVHQQNALFQYFADTLTAVVQNAKKSGRYDMGILDLGSGDEKVRKSDVKKFLTPGYSTSGHVELYTISVERGMSWEEATKIWAELTGPDDGFYLSLQIRNNKKTAILVKEVNPKKKLFLIYRPNTGKQLKLEIYADLKKKYKKVVSDDALVHWLDQYNSSADTCTHAYWRGNCKKASLGLVCEIGLRCRTYYVLCGSVLSVWTKVEGVLASVSGTNVKMQIVRLRTEDGQRIVGLIIPANCVSPLVNLLSTSDQSQQLAVQQKQLWQQHHPQSITNLSNL
B2: GFP-SBNO1 (human Strawberry Notch 1, GFP-tagged) (protein, UniProt A3KN83 1-1393)
chain: MVEPGQDLLLAALSESGISPNDLFDIDGGDAGLATPMPTPSVQQSVPLSALELGLETEAAVPVKQEPETVPTPALLNVRQQPPSTTTFVLNQINHLPPLGSTIVMTKTPPVTTNRQTITLTKFIQTTASTRPSVSAPTVRNAMTSAPSKDQVQLKDLLKNNSLNELMKLKPPANIAQPVATAATDVSNGTVKKESSNKEGARMWINDMKMRSFSPTMKVPVVKEDDEPEEEDEEEMGHAETYAEYMPIKLKIGLRHPDAVVETSSLSSVTPPDVWYKTSISEETIDNGWLSALQLEAITYAAQQHETFLPNGDRAGFLIGDGAGVGKGRTIAGIIYENYLLSRKRALWFSVSNDLKYDAERDLRDIGAKNILVHSLNKFKYGKISSKHNGSVKKGVIFATYSSLIGESQSGGKYKTRLKQLLHWCGDDFDGVIVFDECHKAKNLCPVGSSKPTKTGLAVLELQNKLPKARVVYASATGASEPRNMAYMNRLGIWGEGTPFREFSDFIQAVERRGVGAMEIVAMDMKLRGMYIARQLSFTGVTFKIEEVLLSQSYVKMYNKAVKLWVIARERFQQAADLIDAEQRMKKSMWGQFWSAHQRFFKYLCIASKVKRVVQLAREEIKNGKCVVIGLQSTGEARTLEALEEGGGELNDFVSTAKGVLQSLIEKHFPAPDRKKLYSLLGIDLTAPSNNSSPRDSPCKENKIKKRKGEEITREAKKARKVGGLTGSSSDDSGSESDASDNEESDYESSKNMSSGDDDDFNPFLDESNEDDENDPWLIRKDHKKNKEKKKKKSIDPDSIQSALLASGLGSKRPSFSSTPVISPAPNSTPANSNTNSNSSLITSQDAVERAQQMKKDLLDKLEKLAEDLPPNTLDELIDELGGPENVAEMTGRKGRVVSNDDGSISYESRSELDVPVEILNITEKQRFMDGDKNIAIISEAASSGISLQADRRAKNQRRRVHMTLELPWSADRAIQQFGRTHRSNQVTAPEYVFLISELAGEQRFASIVAKRLESLGALTHGDRRATESRDLSRFNFDNKYGRNALEIVMKSIVNLDSPMVSPPPDYPGEFFKDVRQGLIGVGLINVEDRSGILTLDKDYNNIGKFLNRILGMEVHQQNALFQYFADTLTAVVQNAKKNGRYDMGILDLGSGDEKVRKSDVKKFLTPGYSTSGHVELYTISVERGMSWEEATKIWAELTGPDDGFYLSLQIRNNKKTAILVKEVNPKKKLFLVYRPNTGKQLKLEIYADLKKKYKKVVSDDALMHWLDQYNSSADTCTHAYWRGNCKKASLGLVCEIGLRCRTYYVLCGSVLSVWTKVEGVLASVSGTNVKMQIVRLRTEDGQRIVGLIIPANCVSPLVNLLSTSDQSQQLAVQQKQLWQQHHPQSITNLSNA

Key:
[1] = target: Tead4, endogenous in mouse E3.5 embryos (mouse (endogenous in E3.5 embryos)) (UniProt Q62296); test: proximity ligation; Duolink in situ PLA on fixed E3.5 mouse embryos with antibodies against the endogenous proteins; anti-Tead4 alone as control
[2] = target: Myc-mSsrp1 (mouse) (UniProt Q08943); test: co-IP; tagged proteins co-expressed in 293T cells; lysis buffer 10 mM HEPES pH 7.6, 250 mM NaCl, 0.1% NP40, 5 mM EDTA; IP with tag antibody and protein-G PLUS-agarose, 30 min at 4 °C; blot with tag antibodies; with or without co-expressed HA-Yap or Myc-NICD1

Molecule	binding [1]	binding [2]
Yap, endogenous in mouse E3.5 embryos (from UniProt P46938 1-488)	binds	
B1	binds	
B2		binds
